One experiment deals with GFP-tagged Orai1 (UniProt Q96D31). In words: co-IP; GFP-tagged Orai1 precipitated from HEK293 lysate; blots for endogenous PDE4, protein kinase A and AKAP79; cells at rest and after thapsigargin for 8 min in 2 mM external Ca2+; cells pre-treated with boiled StHT-31 included.
The target in another experiment is T1, NFAT1-GFP (UniProt Q13469).
T1 sequence: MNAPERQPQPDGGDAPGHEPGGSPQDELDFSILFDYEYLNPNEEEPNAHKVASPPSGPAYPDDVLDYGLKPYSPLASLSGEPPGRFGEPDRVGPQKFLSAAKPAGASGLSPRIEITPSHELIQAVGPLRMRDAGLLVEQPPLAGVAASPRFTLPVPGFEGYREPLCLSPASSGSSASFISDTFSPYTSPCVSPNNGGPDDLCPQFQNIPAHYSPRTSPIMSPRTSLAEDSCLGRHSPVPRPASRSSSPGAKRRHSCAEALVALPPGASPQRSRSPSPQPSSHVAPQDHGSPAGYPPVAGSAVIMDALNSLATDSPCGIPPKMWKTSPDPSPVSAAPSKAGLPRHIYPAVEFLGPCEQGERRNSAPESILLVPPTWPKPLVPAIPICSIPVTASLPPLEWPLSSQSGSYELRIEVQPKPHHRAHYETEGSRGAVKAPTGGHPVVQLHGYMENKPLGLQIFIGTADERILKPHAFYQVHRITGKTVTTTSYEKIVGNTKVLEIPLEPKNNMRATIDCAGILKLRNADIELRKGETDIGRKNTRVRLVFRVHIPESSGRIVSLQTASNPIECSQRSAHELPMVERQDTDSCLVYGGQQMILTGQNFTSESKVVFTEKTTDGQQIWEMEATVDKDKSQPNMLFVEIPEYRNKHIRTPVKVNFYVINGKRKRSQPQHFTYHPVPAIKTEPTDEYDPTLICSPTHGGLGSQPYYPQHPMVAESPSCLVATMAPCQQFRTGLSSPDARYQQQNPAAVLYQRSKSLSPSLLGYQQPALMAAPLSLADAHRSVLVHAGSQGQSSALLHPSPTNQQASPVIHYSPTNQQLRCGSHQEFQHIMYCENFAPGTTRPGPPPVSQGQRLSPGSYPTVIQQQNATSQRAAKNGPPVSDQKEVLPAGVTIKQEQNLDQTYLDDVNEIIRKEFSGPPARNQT
As to the kind of experiment: co-IP; NFAT1-GFP precipitated with anti-GFP agarose beads at 4°C from HEK293 lysate (50 mM Tris-HCl pH 7.5, 150 mM NaCl, 1% Triton X-100, 4 mM EGTA); blots for endogenous proteins; cells at rest and after 2 uM thapsigargin in Ca2+-free external solution.

Sequences of proteins named here, by UniProt entry; tags and fusion partners are left off.
UniProt Q96D31: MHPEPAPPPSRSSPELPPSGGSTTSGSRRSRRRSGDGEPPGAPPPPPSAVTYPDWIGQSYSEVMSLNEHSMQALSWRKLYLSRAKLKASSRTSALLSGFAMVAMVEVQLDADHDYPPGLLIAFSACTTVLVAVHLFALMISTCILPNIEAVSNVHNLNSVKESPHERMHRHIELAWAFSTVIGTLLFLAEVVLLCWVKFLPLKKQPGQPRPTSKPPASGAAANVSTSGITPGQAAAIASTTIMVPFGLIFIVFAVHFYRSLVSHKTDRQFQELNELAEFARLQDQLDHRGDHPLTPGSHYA

Experiment [1] deals with AKAP79-YFP (UniProt P24588). In words: co-IP; AKAP79-YFP or PKA mutant AKAP79-YFP precipitated with anti-GFP from lysate of HEK293 cells with endogenous AKAP79 knocked down and myc-Orai1 co-expressed; cells at rest and after thapsigargin in 2 mM external Ca2+.
Experiment [2] addresses AKAP79-YFP (UniProt P24588). In words: condition: only resting cells (no store depletion with thapsigargin); co-IP; as a2, resting cells only (no thapsigargin, stores not depleted).

Results are given in words; binding and its absence hold for the method and conditions named. Binding seen in cells or lysates may run through a third protein. Some binding calls cover weakened binding; strength is not graded here. For some of these results: Sequences can lack the tags named with a protein.

“AKAP79 (endogenous) (from UniProt P24588 1-427)”: the binding entry with GFP-tagged Orai1 and in the experiment with NFAT1-GFP was “binds” in each case.

As for Orai1-myc (from UniProt Q96D31 1-301), the binding result with AKAP79-YFP [1] was “binds”; with AKAP79-YFP [2] it was “no binding”.

Source of the values: PMC8394516.
